# Over roughly 33,000 sequences, “E-score (-0.5 to 0.5)” has its median near -0.015; the highest 2% begin near 0.3. The list shows a part of the results.
# Molecular target: T1, Abf1 (UniProt P14164)
# T1 sequence: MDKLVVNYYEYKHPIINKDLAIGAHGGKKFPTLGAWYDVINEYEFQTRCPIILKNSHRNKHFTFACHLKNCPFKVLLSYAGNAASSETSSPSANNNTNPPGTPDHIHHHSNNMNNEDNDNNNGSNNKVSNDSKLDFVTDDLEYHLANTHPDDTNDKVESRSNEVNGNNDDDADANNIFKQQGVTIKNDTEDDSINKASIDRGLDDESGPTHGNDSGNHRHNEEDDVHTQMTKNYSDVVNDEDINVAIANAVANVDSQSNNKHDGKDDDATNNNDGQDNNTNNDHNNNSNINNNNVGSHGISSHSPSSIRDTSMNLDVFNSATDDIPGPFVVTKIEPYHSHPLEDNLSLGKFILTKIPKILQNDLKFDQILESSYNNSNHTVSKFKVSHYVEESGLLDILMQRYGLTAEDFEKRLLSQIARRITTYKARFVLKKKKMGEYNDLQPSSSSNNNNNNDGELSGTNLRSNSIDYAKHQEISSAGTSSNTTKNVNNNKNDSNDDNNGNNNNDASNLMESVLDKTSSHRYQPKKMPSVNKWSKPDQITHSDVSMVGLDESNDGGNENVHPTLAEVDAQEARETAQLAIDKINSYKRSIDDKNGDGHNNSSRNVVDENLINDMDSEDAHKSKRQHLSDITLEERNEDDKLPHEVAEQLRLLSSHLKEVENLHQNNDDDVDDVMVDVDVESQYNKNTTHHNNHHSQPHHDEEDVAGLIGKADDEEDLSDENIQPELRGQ
# Experiment: PBM E-score (8-mer binding enrichment) (E-score (-0.5 to 0.5)); higher = stronger / more preferred TF binding
# Settings: protein concentration: 200 nM; construct: GST-full length
# Procedure: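 Universal 'all 10-mer' protein binding microarrays (Agilent AMADID 015681) probed with GST-tagged S. cerevisiae TFs (full-length or DBD) made by in vitro transcription/translation (PURExpress), about 100-200 nM. Bound TF was detected with fluorescent anti-GST. Each ungapped 8-mer (which stands for itself and its reverse complement) is scored by the PBM enrichment score (E-score), a modified Wilcoxon-Mann-Whitney statistic from -0.5 to +0.5, computed with the Universal PBM Analysis Suite. Scale: above 0.35 generally sequence-specific binding.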
row,Sequence,PBM E-score
1,CTCCTTAC,-0.0953
2,AGCGTCCT,-0.122
3,AGTTCCGC,-0.259
4,ACGAGGAT,0.0974
5,AGTGACCG,0.125
6,GCCTAGGC,-0.0604
7,CCTGGCTC,-0.0859
8,ACGTCTAG,0.167
9,CCGACGAA,0.205
10,ACCGTGGA,0.0601
11,CAGTAAGA,0.113
12,ACTCACGG,0.148
13,AGTGGTGC,-0.14
14,GCCTGACC,-0.00528
15,AGGTGAGC,-0.173
16,ACCCCCTG,-0.352
17,CGTCATTA,0.327
18,AACCAACA,-0.00626
19,CGTTTATC,0.297
20,ATCATCCC,0.197
21,ACTAAACA,-0.0138
22,GTCAACCA,-0.152
23,ATGACGAC,0.265
24,ACCACGCG,-0.039
25,ATAGTGGG,-0.075

row,Sequence,PBM E-score
1,CGTGGCAG,0.133
2,GTTAGGGA,-0.072
3,CGCGTGGA,0.00451
4,AACCGCGT,-0.0708
5,CACGTTCG,-0.108
6,CTAGGAGA,-0.236
7,CACAGGTC,-0.0396
8,ATAGGCCG,0.00399
9,GTACTTAA,-0.0261
10,ATACAAAC,0.222
11,CATGAACC,-0.00224
12,CACGTAGC,-0.114
13,CCCCTAAG,-0.15
14,CGTTGCCC,-0.163
15,GAATTGGA,-0.016
16,TGACTCCA,-0.181
17,TTAATAAA,0.123
18,GACCATGC,0.0213
19,GTAATGGA,0.138
20,CCGTCAGG,0.162
21,CCGATACG,0.121
22,ACTCCTGG,-0.316
23,AAGACTTC,-0.0816
24,GGCGCCGA,-0.215
25,AACGAACA,0.215

row,Sequence,PBM E-score
1,AGCCTGCC,-0.174
2,GAGACCGA,-0.0902
3,TCCAAAAA,0.148
4,CAACGTCA,0.177
5,AATCGCTA,-0.0656
6,CCTAAAGC,-0.215
7,TGAACTCA,0.122
8,GCCCTGAA,0.122
9,ATGAAATA,0.235
10,GGGTAGAA,-0.0486
11,ATCCATAC,0.159
12,GGGAGTAC,-0.171
13,ACCCAACG,-0.0268
14,ATATGGAC,0.0594
15,CCCATTCC,-0.304
16,GCAGGCCC,-0.35
17,CTTCAACC,-0.0665
18,AAGATTAG,0.142
19,AAACTCCC,-0.275
20,GCCTTAGC,-0.114
21,GTGGTCTA,-0.195
22,ATTTTCGA,0.0858
23,GATGTCCC,0.209
24,ACGATGCT,0.248
25,CCTAACCC,-0.275

row,Sequence,PBM E-score
1,AACTAGAA,0.00854
2,GTCAGGAC,0.0181
3,CTAGTAGA,-0.00223
4,CACGGCCC,0.0309
5,CTTGGGAA,0.0477
6,ACACCGTC,0.065
7,AGCGCCCG,-0.139
8,GCGTTGAA,-0.0702
9,CAGTTGAC,0.00605
10,CCGCGCCA,-0.197
11,AATAGAAC,0.01
12,ACTTTCTC,-0.103
13,GTCGATCA,0.0951
14,GGTTTCAA,-0.0203
15,GCCCGGTA,-0.259
16,ATTGAGCG,0.00117
17,AATGCATG,-0.108
18,CGGACTGC,-0.0758
19,ATTCGTTA,0.233
20,AATCTTGA,-0.16
21,CGTAAATA,0.299
22,ATTTTCCG,0.1
23,AGATCGAG,-0.0692
24,GCCCCCTA,-0.227
25,CAGTTAAC,-0.0314

row,Sequence,PBM E-score
1,GCTGCCCC,-0.172
2,ACCCATAA,0.0543
3,AGGCATGG,-0.0197
4,AATGCTTA,-0.213
5,GGGGTCAA,-0.0161
6,AAACGAGA,-0.0205
7,AGTGCCTG,-0.09
8,GGAAGTCA,0.0206
9,AGCATGCC,-0.245
10,CGCCCGCA,-0.138
11,CACGCTAA,0.0897
12,CAACTGGG,-0.0759
13,CCCTGTTC,-0.22
14,TGGCAGAA,0.0106
15,GATCCCCA,-0.167
16,CGAATCTA,0.0898
17,GTTGCATA,0.0235
18,CTTCCAAG,-0.173
19,GAGCACAC,-0.062
20,ATCTCGCG,0.206
21,ACTGTTTA,0.00268
22,AAGCCATG,-0.172
23,ATGTTAAC,-0.0314
24,AGTCTCAG,-0.142
25,ATCTACTA,0.201

row,Sequence,PBM E-score
1,GATACTTA,0.157
2,CCAATCGA,-0.00987
3,AGCAGCTA,0.0153
4,GACACCGA,0.0438
5,AACATAAG,0.00727
6,CACTCAGG,-0.15
7,AACCCACC,0.00672
8,CTCTTCAA,-0.162
9,ACGAACTA,0.266
10,ACTAATAG,0.0504
11,TCGGTCCA,-0.0605
12,ATGGCGAC,-0.0407
13,GTACTGTA,-0.0824
14,AAACTGAC,-0.164
15,GATTTTCC,-0.0479
16,AAACACAG,-0.0396
17,CCCGTTAC,0.028
18,TCGTCAAA,0.233
19,AGCGAAGA,-0.0102
20,AAGCTCCG,-0.0781
21,CTACGGTA,0.138
22,CGGGGTGC,-0.252
23,AAACTGCT,-0.00508
24,GAGATGTA,0.118
25,CTGCTGTA,-0.0677

# Laid out differently: results already given
row	Sequence	PBM E-score
13	GTACTGTA	-0.0824
14	AAACTGAC	-0.164
15	GATTTTCC	-0.0479

# Following part:

row,Sequence,PBM E-score
1,GAAGAAGA,0.101
2,CCTGCTTA,-0.0442
3,CTTGTTAA,-0.072
4,AACTGCCT,0.0853
5,ATCCCCTC,0.00375
6,CGTACGAA,0.447
7,AAACTGTC,0.0845
8,AAGGGTTG,0.0233
9,CTCGCATA,-0.0654
10,ACTAGTCA,-0.0738
11,ATACAGAT,0.124
12,GTGCCAAA,0.121
13,CCCGATAC,-0.0131
14,CCGGCCCA,-0.227
15,CTACGAAC,0.275
16,AAGTTACC,0.146
17,AAATATCA,0.376
18,TCTGAACA,0.0535
19,GAAACGTC,0.0902
20,CTATTAGA,-0.0837
21,CCAATAGG,-0.13
22,ATGGTCTA,-0.221

# Reformatted: entries from further up.
row	Sequence	PBM E-score
11	TCGGTCCA	-0.0605
12	ATGGCGAC	-0.0407
13	GTACTGTA	-0.0824
14	AAACTGAC	-0.164
